Results are given in words; binding and its absence hold for the method and conditions named.
Target: recombinant full-length human LRH-1 (FL-hLRH-1) (human) (UniProt O00482)
Experiment: native gel or EMSA; hLRH-1 bound to a 24 bp duplex of the Inhibin-A promoter, after size exclusion chromatography on Superdex 200 (16/60); both purified

Protein sequences, listed by entry. Tags and fused reporters are not part of them.
UniProt O00482: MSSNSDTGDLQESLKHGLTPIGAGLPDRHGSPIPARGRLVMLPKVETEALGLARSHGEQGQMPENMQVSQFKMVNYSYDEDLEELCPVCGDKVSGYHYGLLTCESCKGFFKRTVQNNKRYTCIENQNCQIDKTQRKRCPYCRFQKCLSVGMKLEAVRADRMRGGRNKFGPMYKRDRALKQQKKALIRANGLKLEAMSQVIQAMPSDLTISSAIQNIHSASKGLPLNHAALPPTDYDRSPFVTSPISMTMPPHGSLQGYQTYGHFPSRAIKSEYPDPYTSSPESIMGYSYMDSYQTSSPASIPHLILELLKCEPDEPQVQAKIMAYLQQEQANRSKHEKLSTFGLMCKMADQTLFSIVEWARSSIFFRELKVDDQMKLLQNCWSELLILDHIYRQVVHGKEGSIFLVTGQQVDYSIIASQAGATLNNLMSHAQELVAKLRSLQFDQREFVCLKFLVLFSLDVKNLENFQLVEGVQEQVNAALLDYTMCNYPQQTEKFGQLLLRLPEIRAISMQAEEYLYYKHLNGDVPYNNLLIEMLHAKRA

Q: “recombinant full-length human LRH-1 (FL-hLRH-1) (from UniProt O00482 1-541)” was tested. Which binding did it give?
A: no binding
